The results in this text go back to article doi:10.1101/2020.07.11.196790.

Chains of the proteins cited; added tags and fusions are not shown.
UniProt Q86WV6: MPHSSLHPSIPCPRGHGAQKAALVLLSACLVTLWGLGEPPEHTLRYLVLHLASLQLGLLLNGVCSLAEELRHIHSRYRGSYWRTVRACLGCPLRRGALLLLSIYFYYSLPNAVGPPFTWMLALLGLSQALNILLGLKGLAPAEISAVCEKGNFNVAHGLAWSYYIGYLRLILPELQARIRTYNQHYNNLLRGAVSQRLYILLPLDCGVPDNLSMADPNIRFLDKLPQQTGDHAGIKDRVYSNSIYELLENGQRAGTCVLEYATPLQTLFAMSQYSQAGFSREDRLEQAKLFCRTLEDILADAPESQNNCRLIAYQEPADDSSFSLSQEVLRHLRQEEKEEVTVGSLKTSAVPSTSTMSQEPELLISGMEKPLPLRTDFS

These are yes or no findings as the source states them, for the method shown. In cells and extracts the contact can be indirect. Here binding means that the protein was enriched with, or labelled near, the bait; the list need not be complete. For part of these data: A no says only that the protein was not detected with the bait.

Test [1] deals with Flag-STING-HA (Stimulator of Interferon Genes) (human), Q86WV6. Put plainly: affinity purification with mass spectrometry. Conditions: remark: other sources report otherwise.
The target in test [2] is Flag-STING-HA (Stimulator of Interferon Genes) (human) (UniProt Q86WV6). Description: affinity purification with mass spectrometry.

B1: TANK-binding kinase 1, Q9UHD2 1-729 (protein)
chain: MQSTSNHLWLLSDILGQGATANVFRGRHKKTGDLFAIKVFNNISFLRPVDVQMREFEVLKKLNHKNIVKLFAIEEETTTRHKVLIMEFCPCGSLYTVLEEPSNAYGLPESEFLIVLRDVVGGMNHLRENGIVHRDIKPGNIMRVIGEDGQSVYKLTDFGAARELEDDEQFVSLYGTEEYLHPDMYERAVLRKDHQKKYGATVDLWSIGVTFYHAATGSLPFRPFEGPRRNKEVMYKIITGKPSGAISGVQKAENGPIDWSGDMPVSCSLSRGLQVLLTPVLANILEADQEKCWGFDQFFAETSDILHRMVIHVFSLQQMTAHKIYIHSYNTATIFHELVYKQTKIISSNQELIYEGRRLVLEPGRLAQHFPKTTEENPIFVVSREPLNTIGLIYEKISLPKVHPRYDLDGDASMAKAITGVVCYACRIASTLLLYQELMRKGIRWLIELIKDDYNETVHKKTEVVITLDFCIRNIEKTVKVYEKLMKINLEAAELGEISDIHTKLLRLSSSQGTIETSLQDIDSRLSPGGSLADAWAHQEGTHPKDRNVEKLQVLLNCMTEIYYQFKKDKAERRLAYNEEQIHKFDKQKLYYHATKAMTHFTDECVKKYEAFLNKSEEWIRKMLHLRKQLLSLTNQCFDIEEEVSKYQEYTNELQETLPQKMFTASSGIKHTMTPIYPSSNTLVEMTLGMKKLKEEMEGVVKELAENNHILERFGSLTMDGGLRNVDCL
On to B1, for which, in test [1], the binding result is “no binding”.

B2: TMEM43 (protein, UniProt Q9BTV4 1-400)
chain: MAANYSSTSTRREHVKVKTSSQPGFLERLSETSGGMFVGLMAFLLSFYLIFTNEGRALKTATSLAEGLSLVVSPDSIHSVAPENEGRLVHIIGALRTSKLLSDPNYGVHLPAVKLRRHVEMYQWVETEESREYTEDGQVKKETRYSYNTEWRSEIINSKNFDREIGHKNPSAMAVESFMATAPFVQIGRFFLSSGLIDKVDNFKSLSLSKLEDPHVDIIRRGDFFYHSENPKYPEVGDLRVSFSYAGLSGDDPDLGPAHVVTVIARQRGDQLVPFSTKSGDTLLLLHHGDFSAEEVFHRELRSNSMKTWGLRAAGWMAMFMGLNLMTRILYTLVDWFPVFRDLVNIGLKAFAFCVATSLTLLTVAAGWLFYRPLWALLIAGLALVPILVARTRVPAKKLE
With B2, the binding result in test [2] is given as “binds”.

B3: HMGB2 (protein, UniProt P26583 1-209)
chain: MGKGDPNKPRGKMSSYAFFVQTCREEHKKKHPDSSVNFAEFSKKCSERWKTMSAKEKSKFEDMAKSDKARYDREMKNYVPPKGDKKGKKKDPNAPKRPPSAFFLFCSEHRPKIKSEHPGLSIGDTAKKLGEMWSEQSAKDKQPYEQKAAKLKEKYEKDIAAYRAKGKSEAGKKGPGRPTGSKKKNEPEDEEEEEEEEDEDEEEEDEDEE
For B3, the binding result in test [2] is given as “binds”.
